The whole screen tested about 400,000 compounds, of which about 13,000 (3.2%) were called active. The shares of active, inactive and inconclusive entries below differ from those in the screen. Calls come from the whole dose curve; as a rule, active = well fitted cell-killing curve with a large enough effect; inconclusive = small, poorly fitted or top-dose-only effect, or effect the other way; inactive = flat fitted curve, though single readings scatter. Potencies beside an inconclusive call are fits to weak or partial responses and may not hold up.
Test: qHTS assay for MDR1-selective chemotherapeutics: Primary screen using the drug-selected MDR subline cells KB-V1; note: nearly all actives have a fitted effect of over 60% in size
Conditions: KB-V1 MDR cells viability, CellTiter-Glo, 72 h; activity change, negative = cytotoxicity: at 46.1 µM (top of the series)
How it was run: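 Luminescent ATP read-out (CellTiter-Glo, 10 min) measures survival of drug-selected KB-V1 MDR cells after 72 h, 37 degrees C compound exposure. Medium: phenol-red-free DMEM, 10% FBS. Values from fitted concentration-response curves.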
With `O=C(NCc1ccccc1)C(c1cccnc1)N(C(=O)c1csnn1)c1ccc(F)cc1` (centres undefined) the Potency was inconclusive: 0.366 µM [cytotoxic, full curve].
With `COC(=O)N1C(=O)[C@@](c2ccccc2)(C(C)C)N1C(=O)OC` the “activity change, negative = cytotoxicity” value was inactive: 24.9%.
In the case of `O=C(N/N=C/C(Cl)=C/c1ccccc1)c1ccc2c(c1)OCO2`, the Potency is reported as inconclusive: 20.6 µM [cytotoxic, single point].
With `COc1cc(/C=N/N=C2/NC(=O)C(CC(=O)O)S2)ccc1OCc1ccc(Cl)cc1` (centres undefined) the Potency was inconclusive: 10.3 µM [rising, partial curve, poor fit].
With `CCSc1ccccc1C(=O)Nc1cccc(OC)c1` the Potency was active: 18.4 µM.
For `COc1cc2c(cc1OC)C(C(=O)NC1CC1)C1c3ccccc3CCN1C2=O` (centres undefined), the Potency was inconclusive: 4.61 µM [cytotoxic, partial curve].
With `Cc1cc(=O)[nH]c2ccccc12` the Potency was inconclusive: 29.1 µM [cytotoxic, single point].
For `COc1cccc(NC(=O)CSc2nnc(NC(=O)C3CCC3)s2)c1`, the Potency was inconclusive: 25.9 µM [cytotoxic, partial curve].
With `Cc1ccc(NC(=O)c2oc3ccc(S(=O)(=O)N4CCOCC4)cc3c2C)cc1C` the “activity change, negative = cytotoxicity” value was inactive: 20.5%.
For `COc1ccccc1N=NC1C(=O)N(C(N)=S)N=C1C` (centres undefined), the Potency was inconclusive: 18.4 µM [cytotoxic, single point].
In the case of `CS(=O)(=O)c1ccc(Sc2nc3ccccc3s2)c([N+](=O)[O-])c1`, the Potency is reported as inconclusive: 20.6 µM [cytotoxic, single point].
In the case of `COC(=O)/C=C/c1ccc2c(c1)S(=O)(=O)N(c1cccc(OC)c1)[C@H]2CC(=O)OC`, the Potency is reported as inconclusive: 29.1 µM [rising, single point].
With `O=C(C1CCC(CNc2c(N3CCCCC3)c(=O)c2=O)CC1)N1CCCCC1` (centres undefined) the Potency was inconclusive: 29.1 µM [rising, single point].
With `Cc1ccc(C(=O)NC(=S)Nc2nc(-c3cccc([N+](=O)[O-])c3)cs2)c(Cl)c1` the Potency was inconclusive: 18.4 µM [cytotoxic, partial curve].
In the case of `Cc1c(C(=O)NCc2cccs2)oc2ccccc12`, the “activity change, negative = cytotoxicity” value is reported as inactive: -22%.
For `Cc1cc(/C=C2\C(=N)N3N=C(c4ccco4)SC3=NC2=O)c(C)n1Cc1ccccc1`, the “activity change, negative = cytotoxicity” value was inactive: -0.252%.
With `COc1cc2c(cc1OC)C(c1ccc(-c3cc(Cl)ccc3Cl)o1)=NCC2` the Potency was active: 5.17 µM.
In the case of `CCn1nc(NC(=O)c2ccncc2)c2cc3ccc(C)cc3nc21`, the Potency is reported as active: 9.2 µM.
With `Cc1cc(C)n(-c2nc3c(c(=O)[nH]c(=O)n3C)n2Cc2cccc(Br)c2)n1` the Potency was inconclusive: 18.4 µM [cytotoxic, single point].

Source: PubChem BioAssay AID1347076 (National Center for Advancing Translational Sciences (NCATS), 2019)
% is set by controls: 0 for no effect and ±100 for the full control effect; potency is the fitted concentration of half-maximal effect.
